13 compounds from the supplement of paper PMC4604168 (melanoma cell lines) can be followed below.

Some of the results follow. Repeats are few or missing, and single values can be far off.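 The apoptosis fraction was the count of cleaved-PARP antibody-stained nuclei relative to all DNA-stained nuclei, imaged in 1,536-well plates. Screening doses were set so most cells survived, and baseline and induced cleaved-PARP levels vary greatly across cell lines.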

This experiment relates to SkMel28. Put plainly: cleaved PARP positive nuclei fraction relative to DMSO control; melanoma cells; higher = more apoptosis. The following applies: library dose: low library concentration; 72 h.
For `NC(=O)c1ccc(N(C(N)=O)c2c(F)cccc2F)nc1-c1ccc(F)cc1F` + COc1cc2c(Oc3ccc4[nH]c(C)cc4c3F)ncnc2cc1OCCCN1CCCC1 [cediranib] (first compound 0.4 µM, partner dose 0.4 µM), the “cleaved PARP positive nuclei fraction” value was found to be 51.4%. Regarding `Cn1cnc2c(F)c(Nc3ccc(Br)cc3Cl)c(C(=O)NOCCO)cc21` [selumetinib] + CCN(CC)CCCCNc1ncc2cc(-c3cc(OC)cc(OC)c3)c(NC(=O)NC(C)(C)C)nc2n1 [PD173074] (first compound 0.015 µM, partner dose 0.1 µM), the “cleaved PARP positive nuclei fraction” value turned out to be 155%.

For `CN(c1ncccc1CNc1nc(Nc2ccc3c(c2)CC(=O)N3)ncc1C(F)(F)F)S(C)(=O)=O` + Oc1nc(-c2ccc(C(F)(F)F)cc2)nc2c1CSCC2 [XAV939] (first compound 0.08 µM, partner dose 2 µM), the “cleaved PARP positive nuclei fraction” value was determined as 108%. For the compound `Cn1cnc2c(F)c(Nc3ccc(Br)cc3Cl)c(C(=O)NOCCO)cc21` [selumetinib] + COc1ccc(COc2ccc(Cc3cnc(N)nc3N)cc2OC)cc1 [GW2580] (first compound 0.015 µM, partner dose 1 µM), the “cleaved PARP positive nuclei fraction” value was found to be 124%. The result for `NC(=O)c1ccc(N(C(N)=O)c2c(F)cccc2F)nc1-c1ccc(F)cc1F` + O=C(O)c1ccc(-c2c[nH]c3ncc(-c4ccccc4)cc23)cc1C1CCCC1 [GSK650394] (first compound 0.4 µM, partner dose 0.16 µM) reads 173%; that for `COc1ccc(C2=N[C@@H](c3ccc(Cl)cc3)[C@@H](c3ccc(Cl)cc3)N2C(=O)N2CCNC(=O)C2)c(OC(C)C)c1` [Nutlin-3] + NC(=O)Nc1cc(-c2cccc(F)c2)sc1C(=O)N[C@H]1CCCNC1 [AZD7762] (first compound 0.1 µM, partner dose 0.02 µM), 59.9%; that for `CS(=O)(=O)c1ccc(C(=O)Nc2ccc(Cl)c(-c3ccccn3)c2)c(Cl)c1` [vismodegib] + Cc1ccc(NC(=O)c2cccc(N(C)C)c2)cc1NC(=O)c1ccc(O)cc1 [ZM336372] (first compound 1 µM, partner dose 2 µM), 124%.

Consider `CCCCCCCCc1ccc(CCC(N)(CO)CO)cc1` [fingolimod] + Cn1cc(/C=C2\C(=O)Nc3cccnc32)c2ccccc21 [GW441756] (first compound 2 µM, partner dose 0.4 µM), for which the “cleaved PARP positive nuclei fraction” value is 143%.

`NC1(c2ccc(-c3nc4ccn5c(=O)[nH]nc5c4cc3-c3ccccc3)cc2)CCC1` + C=CCn1c(=O)c2cnc(Nc3ccc(N4CCN(C)CC4)cc3)nc2n1-c1cccc(C(C)(C)O)n1 [MK1775] (first compound 0.4 µM, partner dose 0.02 µM): the “cleaved PARP positive nuclei fraction” value is 186%. Turning to `C[C@]1(O)C[C@@H](c2nc(-c3ccc4ccc(-c5ccccc5)nc4c3)c3c(N)nccn32)C1` + O=C(Nc1cccc(Cl)c1)Nc1ncc(CCNc2ncnc3ccsc23)s1 [SNS314] (first compound 0.4 µM, partner dose 0.0008 µM), the “cleaved PARP positive nuclei fraction” value was 200%.

With `CC1(C)CCC(c2ccc(Cl)cc2)=C(CN2CCN(c3ccc(C(=O)NS(=O)(=O)c4ccc(N[C@H](CCN5CCOCC5)CSc5ccccc5)c(S(=O)(=O)C(F)(F)F)c4)cc3)CC2)C1` + O=C1NC(=O)/C(=C/c2ccc(-c3ccc(F)cc3O)o2)S1 [AS252424] (first compound 0.4 µM, partner dose 1 µM), the “cleaved PARP positive nuclei fraction” value stood at 186%. The value for `CC1(C)CCC(c2ccc(Cl)cc2)=C(CN2CCN(c3ccc(C(=O)NS(=O)(=O)c4ccc(N[C@H](CCN5CCOCC5)CSc5ccccc5)c(S(=O)(=O)C(F)(F)F)c4)cc3)CC2)C1` + c1cc(-c2cnn3cc(-c4ccc(OCCN5CCCCC5)cc4)cnc23)ccn1 [Dorsomorphin] (first compound 0.4 µM, partner dose 0.4 µM) was 128%; that for `CN(c1ncccc1CNc1nc(Nc2ccc3c(c2)CC(=O)N3)ncc1C(F)(F)F)S(C)(=O)=O` + CCN(CC)CCCCNc1ncc2cc(-c3cc(OC)cc(OC)c3)c(NC(=O)NC(C)(C)C)nc2n1 [PD173074] (first compound 0.08 µM, partner dose 0.1 µM) was 85.9%.
